Measured data: PubChem BioAssay AID602196 (INSERM, 2012)
Assay: 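Modifiers of cisplatin sensitivity in A549 cells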. Cell system: human A549 lung cancer cells. Reagents: siRNA pair against human genes. Timing: 48 h transfection before cisplatin; time from cisplatin to read-out not stated. Conditions: cisplatin at a dose killing half of control-siRNA cells; exact dose and duration not given. Read-out: 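Shift in cisplatin death relative to control siRNA, from -50 (all cells die) to +50 (no cells die); siRNAs harmful on their own scored 0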. Direction: two-siRNA summed score (-2 to +2): higher = both siRNAs protect from cisplatin killing; -2 means both sensitise. Rule for the call: 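Each siRNA scores 0 if harmful alone by LDH or WST-1, otherwise +1 if it reduces and -1 if it increases cisplatin killing; a gene is active when both siRNAs agree (sum +2 or -2)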. Meaning of the calls: active = both siRNAs shift cisplatin killing the same way; inactive = no consistent shift, or siRNA harmful alone.
The whole screen tested about 23,000 reagents; this is a part drawn at random. 455 of them (2%) count as active. 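Active includes both protection and sensitisation; some change values fall well beyond the stated -50 to +50 range.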 Further read-outs or replicates are left out here. The record does not give: the amount of reagent.

| target | two-siRNA summed score (-2 to +2) | activity call |
| --- | --- | --- |
| LOC388079 | 1 | inactive |
| LOC441916 | 0 | inactive |
| PRRT3 | -1 | inactive |
| AP1G2 | 1 | inactive |
| IL13 | 0 | inactive |
| FAM41C | 0 | inactive |
| HOXA2 | -1 | inactive |

Reformatted: 3 of the entries above
IL13 — two-siRNA summed score (-2 to +2) = 0; activity call = inactive
FAM41C — two-siRNA summed score (-2 to +2) = 0; activity call = inactive
HOXA2 — two-siRNA summed score (-2 to +2) = -1; activity call = inactive

Further records follow.
| target | two-siRNA summed score (-2 to +2) | activity call |
| --- | --- | --- |
| LINC01060 | 0 | inactive |
| RYR2 | 0 | inactive |
| RPL31P8 | 0 | inactive |
| OR51A2 | 0 | inactive |
| GFOD3P | 1 | inactive |
| SPINK4 | 0 | inactive |
| DHX58 | 2 | active |
| TMEM107 | 0 | inactive |
| CRH | 1 | inactive |
| DKFZp686I0554 | 1 | inactive |
| LOC388731 | 0 | inactive |
| LOC390564 | 2 | active |
| RND2 | 0 | inactive |
| LOC392451 | 0 | inactive |
| MSH4 | 0 | inactive |
| TMEM196 | -1 | inactive |
